{"source": "patent US11925621B2", "about": "“Medicinal preparation for external use” (Sumitomo Pharma Co., Ltd., priority 2018, dated 2024)", "assay_type_in_all_cases": "in vivo", "key": {"[1]": {"assay": "Concentration of the test compound in plasma after evaluation in SNL rats", "details": "Wistar, rat, topical about 10 mg formulation, blood collected immediately after evaluation (2 hours after application)", "method": "One day after the division into groups, test compounds were administered. […] Administration of a test compound was carried out by application of about 10 mg of each formulation on a medical adhesive film, and attachment of the film to a footpad of a SNL rat at the side of operation under anesthesia with isoflurane inhalation. One hour after the application, the film was removed, and another one hour after, reaction thresholds after administration of the test compound were evaluated. After the evaluation, blood was immediately collected from a cervical vein, and the concentration of the test compound in plasma was measured."}, "[2]": {"tested_on": "ECG (electrocardiogram) parameters of guinea pigs", "assay": "Safety pharmacology study of the cardiovascular system: ECG parameters under anesthesia", "method": "Test 3. Safety Pharmacology Study of the Cardiovascular System Effect of Compound A or lidocaine to the cardiovascular system was studied from effects on ECG (electrocardiogram) parameters of guinea pigs under anesthesia. Evaluation of ECG of guinea pigs was conducted under anesthesia with intra-abdominal administration of a mixed solution of urethane and α-chloralose. Guinea pigs under anesthesia were retained in a supine position, and a right cervical vein was exposed to […] cannula. […] QRS interval and QTc interval are shown as rates of change (%) by similar equations."}, "[3]": {"assay": "Concentration in plasma during continuous intravenous administration in guinea pigs", "details": "dose of 15 mg/kg continuous intravenous for 30 minutes", "method": "Effect of Compound A or lidocaine to the cardiovascular system was studied from effects on ECG (electrocardiogram) parameters of guinea pigs under anesthesia. Evaluation of ECG of guinea pigs was conducted under anesthesia with intra-abdominal administration of a mixed solution of urethane and α-chloralose. Guinea pigs under anesthesia were retained in a supine position, and a right cervical vein was exposed to […] cannula. […] Compound A dissolved in a solvent at a dose of 30 mg/kg, lidocaine dissolved in a solvent at a dose of 15 mg/kg, or a solvent was continuously intravenously administered via a cannula at a constant rate for 30 minutes. […] QRS interval and QTc interval are shown as rates of change (%) by similar equations."}}, "data": [{"smiles": "CCN(CC)CC(=O)Nc1c(C)cccc1C", "note": "[lidocaine, reference compound]", "values": [{"measurement": "concentration at 2 h", "setting": "[1]", "result": 133, "unit": "ng/mL"}, {"measurement": "QTc interval rate of change (prolonged)", "setting": "[2]; 15 mg/kg continuous intravenous for 30 minutes, at 30 minutes after administration", "result": 15.8, "unit": "%"}, {"measurement": "plasma concentration with effect on ECG parameters relative to that at which the analgesic effect appeared", "setting": "[2]; guinea pig maximum plasma concentration at 15 mg/kg versus SNL rat plasma concentration", "result": "about 27 times"}, {"measurement": "maximum concentration in plasma", "setting": "[3]", "result": 3.57, "unit": "µg/mL"}]}]}
